Patent US7795249B2, “Certain pyrazoline derivatives with kinase inhibitory activity” (Millennium Pharmaceuticals, Inc., priority 2006, dated 2010)
Some of these results come from one statement about several compounds together.

Chains of the proteins cited; added tags and fusions are not shown.
UniProt P15056, whole entry, stated change not applied: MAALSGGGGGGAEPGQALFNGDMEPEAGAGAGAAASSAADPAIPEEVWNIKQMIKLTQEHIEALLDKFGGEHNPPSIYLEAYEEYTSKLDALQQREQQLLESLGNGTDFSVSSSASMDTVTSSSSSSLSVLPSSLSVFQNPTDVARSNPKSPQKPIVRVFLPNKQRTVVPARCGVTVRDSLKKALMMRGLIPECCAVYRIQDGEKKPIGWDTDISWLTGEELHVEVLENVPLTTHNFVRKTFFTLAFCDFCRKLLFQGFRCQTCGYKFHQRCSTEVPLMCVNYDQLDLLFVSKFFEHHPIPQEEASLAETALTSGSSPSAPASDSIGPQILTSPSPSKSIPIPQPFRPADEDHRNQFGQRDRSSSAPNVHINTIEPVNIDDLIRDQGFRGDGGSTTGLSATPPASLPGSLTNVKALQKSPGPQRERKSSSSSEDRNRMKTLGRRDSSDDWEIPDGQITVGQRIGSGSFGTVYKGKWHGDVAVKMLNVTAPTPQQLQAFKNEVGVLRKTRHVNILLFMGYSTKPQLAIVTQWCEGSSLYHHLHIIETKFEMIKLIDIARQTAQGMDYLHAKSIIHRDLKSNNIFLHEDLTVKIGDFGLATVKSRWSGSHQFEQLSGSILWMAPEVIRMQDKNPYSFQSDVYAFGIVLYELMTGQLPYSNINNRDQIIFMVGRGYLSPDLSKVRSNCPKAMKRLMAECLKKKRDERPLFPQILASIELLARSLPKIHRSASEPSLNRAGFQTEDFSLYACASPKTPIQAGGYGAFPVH

Biological target: T1, B-Raf (V599E or Wild Type) (Homo sapiens, UniProt P15056)
T1 construct: Enzymatically active wild-type B-Raf was purchased from Upstate (cat#14-530); Enzymatically active mutant B-Raf(V599E) was purified in house; fused on or other part: None is printed; By knowledge, Upstate 14-530 is an N-terminally GST-tagged truncated human B-Raf; the tag is not part of the key
Experiment: B-Raf Flash Plate Assay
Assay type: biochemical
Conditions: bin: less than or equal to 100 nM

| Compound | IC50 |
| --- | --- |
| O=C(Nc1snnc1-c1ccc(Cl)cc1)N1N=C(c2cccnc2)CC1c1ccccc1O (centres unmarked) [Compound I-357, N-[4-(4-chlorophenyl)-1,2,3-thiadiazol-5-yl]-5-(2-hydroxyphenyl)-3-pyridin-3-yl-4,5-dihydro-1H-pyrazole-1-carboxamide] | ≤ 100 nM |
| Cc1oc(S(=O)(=O)N2CCCC2)cc1C(=O)N1N=C(c2cccnc2)CC1c1ccccc1O (centres unmarked) [Compound I-73, 2-{1-[2-methyl-5-(pyrrolidin-1-ylsulfonyl)-3-furoyl]-3-pyridin-3-yl-4,5-dihydro-1H-pyrazol-5-yl}phenol] | ≤ 100 nM |
| COc1cccc(OCc2ccc(C(=O)N3N=C(c4cccnc4)CC3c3ccccc3O)o2)c1 (centres unmarked) [Compound I-32, 2-(1-{5-[(3-methoxyphenoxy)methyl]-2-furoyl}-3-pyridin-3-yl-415-dihydro-1H-pyrazol-5-yl)phenol] | ≤ 100 nM |
| O=C(Nc1cccnc1Oc1ccccc1)N1N=C(c2cccnc2)CC1c1ccccc1O (centres unmarked) [Compound I-292, 5-(2-hydroxyphenyl)-N-(2-phenoxypyridin-3-yl)-3-pyridin-3-yl-4,5-dihydro-1H-pyrazole-1-carboxamide] | ≤ 100 nM |
| O=C(c1ccc(-c2ccccn2)o1)N1N=C(c2cccnc2)CC1c1ccccc1O (centres unmarked) [Compound I-170, 2-[3-pyridin-3-yl-1-(5-pyridin-2-yl-2-furoyl)-4,5-dihydro-1H-pyrazol-5-yl]phenol] | ≤ 100 nM |
| O=C(c1ccc(-c2cccc3c2CNCC3)s1)N1N=C(c2cccnc2)CC1c1c(O)cccc1F (centres unmarked) [Compound I-294, 3-fluoro-2-(3-pyridin-3-yl-1-{[5-(1,2,3,4-tetrahydroisoquinolin-8-yl)-2-thienyl]carbonyl}-4,5-dihydro-1H-pyrazol-5-yl)phenol] | ≤ 100 nM |
| O=C(c1cc(-c2ccco2)on1)N1N=C(c2cccnc2)CC1c1ccccc1O (centres unmarked) [Compound I-140, 2-(1-{[5-(2-furyl)isoxazol-3-yl]carbonyl}-3-pyridin-3-yl-4,5-dihydro-1H-pyrazol-5-yl)phenol] | ≤ 100 nM |
| CNCc1ccccc1-c1ccc(C(=O)N2N=C(c3cncc(N)c3)CC2c2c(O)cccc2F)s1 (centres unmarked) [Compound I-424, 2-{3-(5-aminopyridin-3-yl)-1-[(5-{2-[(methylamino)methyl]phenyl}-2-thienyl)carbonyl]-4,5-dihydro-1H-pyrazol-5-yl}-3-flurophenol] | ≤ 100 nM |
| Cc1oc(S(=O)(=O)N2CCOCC2)cc1C(=O)N1N=C(c2cccnc2)CC1c1ccccc1O (centres unmarked) [Compound I-148, 2-{1-[2-methyl-5-(morpholin-4-ylsulfonyl)-3-furoyl]-3-pyridin-3-yl-4,5-dihydro-1H-pyrazol-5-yl}phenol] | ≤ 100 nM |

More lines, now with the values ahead:

| IC50 | Compound |
| --- | --- |
| ≤ 100 nM | Cn1cc(-c2ccc(C(=O)N3N=C(c4cccnc4)CC3c3ccccc3O)s2)cn1 (centres unmarked) [Compound I-6, 2-(1-{[5-(1-methyl-1H-pyrazol-4-yl)-2-thienyl]carbonyl}-3-pyridin-3-yl-4,5-dihydro-1H-pyrazol-5-yl)phenol] |
| ≤ 100 nM | O=C(c1ccc(-c2cccnc2)s1)N1N=C(c2cccnc2)CC1c1ccccc1O (centres unmarked) [Compound I-173, 2-{3-pyridin-3-yl-1-{(5-pyridin-3-yl-2-thienyl)carbonyl]-4,5-dihydro-1H-pyrazol-5-yl}phenol] |
| ≤ 100 nM | Cc1cc(CN)ccc1-c1ccc(C(=O)N2N=C(c3cccnc3)CC2c2ccccc2O)s1 (centres unmarked) [Compound I-196, 2-[1-({5-[4-(aminomethyl)-2-methylphenyl]-2-thienyl}carbonyl)-3-pyridin-3-yl-4,5-dihydro-1H-pyrazol-5-yl]phenol] |
| ≤ 100 nM | Cc1cccc(Oc2ncccc2NC(=O)N2N=C(c3cccnc3)CC2c2ccccc2O)c1C (centres unmarked) [Compound I-229, N-[2-(2,3-dimethylphenoxy)pyridin-3-yl]-5-(2-hydroxyphenyl)-3-pyridin-3-yl-4,5-dihydro-1H-pyrazole-1-carboxamide] |
| ≤ 100 nM | O=C(c1ccc(-c2ccccn2)s1)N1N=C(c2cccnc2)CC1c1ccc(F)cc1O (centres unmarked) [Compound I-11, 5-fluoro-2-{3-pyridin-3-yl-1-[(5-pyridin-2-yl-2-thienyl)carbonyl]-4,5-dihydro-1H-pyrazol-5-yl}phenol] |
